Consider 41 compounds from the supplement of paper PMC9135407.

The experiment concerns primary human hepatic stellate cells (donor 1). In words: percent Bodipy-positive cells; higher = more lipid droplet accumulation. The conditions noted are these: 48 h.
Setting [1] is: library stock concentration: 10 mM.
Where [2] appears, read: library stock concentration: 3.33 mM.
Setting [3] is: library stock concentration: 1 mM.

Where “and” joins values, the source holds several entries; their conditions need not be identical. Equal entries are not always repeated. Structures can show the parent of a compound that is named as a salt. ± gives the standard deviation of the averaged measurements. The list shows a part of the results. Baselines shift from plate to plate; read single values as rough.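 Assay uses culture-activated primary human stellate myofibroblasts; lipid droplet recovery indicates inactivation. Measured: proportion of Hoechst-counted cells over a plate-specific Bodipy cutoff, duplicate wells, DMSO and nortriptyline as per-plate negative and positive controls. A hit scores, control-normalized, above the plate's top-tenth-percentile nortriptyline wells or ranks among its three best wells. Final well concentrations not reported.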

For the compound `CCCC[P+](CCCC)(CCCC)Cc1ccc(NC(=O)C(Cc2ccc3ccccc3c2)NC(=NC2CCCCC2)NC2CCCCC2)cc1` (stereo not drawn), under setting [1], the “percent Bodipy-positive cells” value is 58.2 ± 9.6%.
On the same count and under the same terms, the same measure for `CCCCCCCCCCCCCCCC(=O)O[C@H](CC(=O)O)C[N+](C)(C)C`: 13.5 ± 4.3%.
For `CN1CCN(c2ccc3nc(-c4c(N)c5c(F)cccc5[nH]c4=O)[nH]c3c2)CC1`, the “percent Bodipy-positive cells” value (library stock concentration: 400 uM) came to 90 ± 5.5%, the “percent Bodipy-positive cells” value (library stock concentration: 2 mM) was determined as 96.78 ± 0.53% and the “percent Bodipy-positive cells” value under setting [1] turned out to be 96.2 ± 1.5%.
On to `CS(=O)(=O)c1ccc([C@@H](O)[C@@H](CF)NC(=O)C(Cl)Cl)cc1` [Florfenicol], for which the “percent Bodipy-positive cells” value was found to be 6.47 ± 0.98%. The “percent Bodipy-positive cells” value under setting [2] was 8.76 ± 3%. Further, the “percent Bodipy-positive cells” value under setting [1] was found to be 25.5 ± 7.7%.
For `CCN(CC)CCCC(C)Nc1ccnc2cc(Cl)ccc12` (stereo not drawn) [Chloroquine phosphate], the “percent Bodipy-positive cells” value (library stock concentration: 6.3 mM) worked out at 25.7 ± 2.4%.
On to `CCN(CC)CCCC(C)Nc1ccnc2cc(Cl)ccc12` (stereo not drawn) [Chloroquine diphosphate], for which the “percent Bodipy-positive cells” value was 67.3 ± 6.4%.
On to `CC(=O)N[C@@H](CC(C)C)C(=O)N[C@@H](CC(C)C)C(=O)N[C@H](C=O)CCCNC(=N)N` [Leupeptin Hemisulfate], for which the “percent Bodipy-positive cells” value turned out to be 30.2 ± 12% under setting [2] and 30.6 ± 7.4% under setting [1].
As to `CCCCCCCCCCCC(=O)c1nc2ncccc2o1`, the “percent Bodipy-positive cells” value under setting [3] came out at 12 ± 4.1%.
With `FCOC(C(F)(F)F)C(F)(F)F`, under setting [1], the “percent Bodipy-positive cells” value was 32.3 ± 16%.
In the case of `O=C(COc1cccc2c(=O)[nH]ccc12)c1ccccc1`, under setting [2], the “percent Bodipy-positive cells” value turned out to be 34.4 ± 11%.
For the compound `Cc1cccc(C)c1NC(=O)c1ccccc1C(=O)O`, under setting [1], the “percent Bodipy-positive cells” value was 41 ± 24%.
With `CCNC(=O)[C@H]1O[C@@H](n2cnc3c(N)nc(NCCc4ccc(CCC(=O)O)cc4)nc32)[C@H](O)[C@@H]1O`, under setting [1], the “percent Bodipy-positive cells” value was 34.3 ± 5.3%.
As to `CNCCNS(=O)(=O)c1cccc2cnccc12` [H-8, Dihydrochloride], the “percent Bodipy-positive cells” value under setting [2] worked out at 14.2 ± 0.69%.
For the compound `CNCCNS(=O)(=O)c1cccc2cnccc12` [H-8 dihydrochloride], under setting [1], the “percent Bodipy-positive cells” value came out at 44.7 ± 4%.
Take `O=C(CN=C(c1ccccc1)c1ccccc1)OCc1ccccc1` [N-(diphenylmethylene) Glycine benzyl ester]: under setting [3], the “percent Bodipy-positive cells” value amounted to 9.7 ± 0.17%.
Regarding `O=C(O)Cn1c(C(=O)Nc2nc(-c3ccccc3Cl)cs2)cc2ccccc21`, the “percent Bodipy-positive cells” value under setting [1] came to 5.22 ± 3%.
In the case of `C[C@](N)(Cc1ccc(O)cc1)C(=O)O` [L-alpha-Methyl-p-tyrosine], the “percent Bodipy-positive cells” value under setting [1] came to 59.6 ± 13%.
In the case of `CC(C)NCC(O)COc1cccc2ccccc12` (racemic) [Propranolol hydrochloride (+/-)], the “percent Bodipy-positive cells” value reads like this: (library stock concentration: 6.8 mM) 57.3 ± 8.3%; under setting [1], 65.27 ± 0.12%.
With `C[C@@H](O)[C@H]1C(=O)N2C(C(=O)O)=C(SCCNC=N)C[C@H]12` [Imipenem], the “percent Bodipy-positive cells” value stood at 28.1 ± 4.2%. Further, the “percent Bodipy-positive cells” value (library stock concentration: 6.7 mM) was determined as 9.09 ± 2.6%.
As to `C[C@@H](O)[C@H]1C(=O)N2C(C(=O)O)=C(SCCNC=N)C[C@H]12` [Imipenem monohydrate], under setting [1], the “percent Bodipy-positive cells” value was found to be 35.2 ± 0.73%.
Turning to `CCCCN1C[C@H](O)[C@@H](O)[C@H](O)[C@H]1CO` [Miglustat], under “library stock concentration: 9.1 mM”, the “percent Bodipy-positive cells” value worked out at 6.6 ± 2.8%.
As to `O=C1NC(=O)C(c2cn(CCCO)c3ncccc23)=C1c1cnccn1` [GSK-3b Inhibitor XI], under setting [2], the “percent Bodipy-positive cells” value stood at 18.1 ± 3.5%.
On to `c1ccc2c(c1)CCCC2C1=NCCN1` (stereo not drawn) [Tetrahydrozoline hydrochloride], for which the “percent Bodipy-positive cells” value was determined as 10.3 ± 1.9%. Further, the “percent Bodipy-positive cells” value under setting [1] is 27.7% and 16.9%.
With `c1ccc2c(c1)CCCC2C1=NCCN1` (stereo not drawn) [Tetrahydrozoline HCl], the “percent Bodipy-positive cells” value reads like this: under setting [2], 6.96 ± 1.6%; under setting [1], 32.7 ± 22%.
With `c1ccc2c(c1)CCCC2C1=NCCN1` (stereo not drawn) [Tyzine], the “percent Bodipy-positive cells” value under setting [1] was 19.8 ± 2.3%.
For `CNc1ncnc2c1ncn2[C@@H]1O[C@H](CO)[C@@H](O)[C@H]1O` [N6-methyladenosine (m6A)], the “percent Bodipy-positive cells” value is, setting by setting: under setting [2], 7.76 ± 1.4%; under setting [1], 34.2 ± 20%.
Turning to `CNc1ncnc2c1ncn2[C@@H]1O[C@H](CO)[C@@H](O)[C@H]1O` [N6-methyladenosine], the “percent Bodipy-positive cells” value was determined as 31.6 ± 2.8%.
Regarding `CNc1ncnc2c1ncn2[C@@H]1O[C@H](CO)[C@@H](O)[C@H]1O` [N6-Methyladenosine], the “percent Bodipy-positive cells” value under setting [1] came out at 25.4 ± 8.6%.
With `Cc1ncc([N+](=O)[O-])n1C`, the “percent Bodipy-positive cells” value under setting [1] stood at 30.9 ± 1.1%.
As for `CC(C)OC(=O)C(C(=O)OC(C)C)=C1SC=CS1` [Malotilate], the “percent Bodipy-positive cells” value under setting [2] stood at 13.3 ± 4.5% and the “percent Bodipy-positive cells” value under setting [1] was 18 ± 13%.
On to `CCCCCC(O)C=CC1C2CC(CO2)C1CC=CCCCC(=O)O` (stereo not drawn), for which the “percent Bodipy-positive cells” value under setting [3] is 23.8%.
For the compound `OCC(O)CN1CCN(c2ccccc2)CC1` (racemic) [Dropropizine (R,S)], the “percent Bodipy-positive cells” value is 24.1 ± 4.8%.
Take `O=C(c1ccc(F)cc1)C1CCN(CCCCc2ccccc2)CC1` [4-(4-Fluorobenzoyl)-1-(4-phenylbutyl)-piperidine oxalate]: the “percent Bodipy-positive cells” value under setting [1] is 34.5 ± 6.4%.
For the compound `CC(C)(C)C(=O)OCOC(=O)[C@@H]1N2C(=O)[C@@H](/N=C/N3CCCCCC3)[C@H]2SC1(C)C` [Pivmecillinam hydrochloride], the “percent Bodipy-positive cells” value was 9.45 ± 0.77%.
With `CC/C=C\C/C=C\C/C=C\C/C=C\CCCCC(=O)O` [Stearidonic Acid], the “percent Bodipy-positive cells” value under setting [3] was 6.98 ± 2.6%.
On to `N[C@@H](CC(=O)O)C(=O)O` [L-Aspartic acid], for which, under setting [1], the “percent Bodipy-positive cells” value was determined as 42.7 ± 5%.
Take `CCN(CC)CCOc1ccc(C(=C(Cl)c2ccccc2)c2ccccc2)cc1.O=C(O)CC(O)(CC(=O)O)C(=O)O` [Clomifene citrate]: the “percent Bodipy-positive cells” value under setting [1] came out at 91.8 ± 3.5%.
As to `O=C1NCCN1c1ncc([N+](=O)[O-])s1` [Niridazole], the “percent Bodipy-positive cells” value was found to be 27.8 ± 1.3%.
For the compound `C[Se]CC[C@H](N)C(=O)O`, the “percent Bodipy-positive cells” value under setting [1] worked out at 33.1 ± 8.4%.
On the same count and under the same terms, in the case of `Nc1ncnc2c1ncn2[C@@H]1O[C@H](CO)C[C@@H]1O` [3'-deoxydenosine] it was 10.6 ± 2.8%.
In the case of `O=C(O)C1=C[C@@H](O)[C@@H](O)[C@H](O)C1` [Shikimic Acid], the “percent Bodipy-positive cells” value is, setting by setting: under setting [2], 12.1 ± 13%; under setting [1], 15.8 ± 5.9%.
